The same purity stands for every peptide and may come from a single statement. Some peptides are written in HELM: one residue between dots, names in brackets for other building blocks, links after the first $.
Test: general procedure: Fmoc solid-phase peptide synthesis; Rink amide resin (Polystyrene AM RAM; 0.69 mmol/g); HATU/DIPEA
Conditions: for final purity (method not given): LC-MS

OTK^8[Aoa-FDG]
conjugation yield (conjugation step): 85%
final purity (method not given) (conjugation step): > 95%

PEPTIDE1{C.Y.I.Q.N.C.P.[Lys(Aoa-FBA)].G.[am]}$PEPTIDE1,PEPTIDE1,1:R3-6:R3$$$V2.0
step yield (late stage modification step): 100%
final purity (method not given) (late stage modification step): > 95%

PEPTIDE1{[Mpr].Y.I.Q.N.C.P.[Lys(4FBz)].G.[am]}$PEPTIDE1,PEPTIDE1,1:R3-6:R3$$$V2.0
final purity (method not given) (late stage modification step): > 95%

Reference: paper PMC12589438 (Communications Chemistry, 2025)
